# Reference: the supplement of paper PMC12067093, “Discovery and optimisation of a covalent ligand for TRIM25 and its application to targeted protein ubiquitination” (Chemical Science, 2025)
# By UniProt entry, the sequences of proteins in these tests, tags left out. Where a name states a change or a piece, a line headed by the entry shows the natural chain unless it says otherwise.
# UniProt Q96CW5, whole entry, looked up: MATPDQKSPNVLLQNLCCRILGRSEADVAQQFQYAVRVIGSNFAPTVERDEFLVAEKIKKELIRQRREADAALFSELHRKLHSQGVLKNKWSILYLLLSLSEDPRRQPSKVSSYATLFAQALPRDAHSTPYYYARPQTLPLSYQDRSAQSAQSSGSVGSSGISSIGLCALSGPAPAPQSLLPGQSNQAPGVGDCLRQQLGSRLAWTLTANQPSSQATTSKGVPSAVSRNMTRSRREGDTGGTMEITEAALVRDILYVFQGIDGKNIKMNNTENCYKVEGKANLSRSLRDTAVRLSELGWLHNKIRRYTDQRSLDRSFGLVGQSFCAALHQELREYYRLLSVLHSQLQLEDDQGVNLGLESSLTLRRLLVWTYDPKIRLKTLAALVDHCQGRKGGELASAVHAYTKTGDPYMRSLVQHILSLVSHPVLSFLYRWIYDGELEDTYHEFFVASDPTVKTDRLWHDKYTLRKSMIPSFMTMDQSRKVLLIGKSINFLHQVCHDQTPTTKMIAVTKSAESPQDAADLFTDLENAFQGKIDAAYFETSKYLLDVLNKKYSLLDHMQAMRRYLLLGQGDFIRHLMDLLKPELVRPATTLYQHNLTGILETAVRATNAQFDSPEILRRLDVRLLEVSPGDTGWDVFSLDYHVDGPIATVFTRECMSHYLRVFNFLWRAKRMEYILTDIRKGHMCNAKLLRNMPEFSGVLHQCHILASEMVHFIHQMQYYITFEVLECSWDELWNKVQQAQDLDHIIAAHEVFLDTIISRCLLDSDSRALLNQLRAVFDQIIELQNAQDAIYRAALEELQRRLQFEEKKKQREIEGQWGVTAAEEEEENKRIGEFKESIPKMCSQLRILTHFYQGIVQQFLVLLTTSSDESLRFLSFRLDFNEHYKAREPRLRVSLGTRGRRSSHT
# UniProt Q9ULT0: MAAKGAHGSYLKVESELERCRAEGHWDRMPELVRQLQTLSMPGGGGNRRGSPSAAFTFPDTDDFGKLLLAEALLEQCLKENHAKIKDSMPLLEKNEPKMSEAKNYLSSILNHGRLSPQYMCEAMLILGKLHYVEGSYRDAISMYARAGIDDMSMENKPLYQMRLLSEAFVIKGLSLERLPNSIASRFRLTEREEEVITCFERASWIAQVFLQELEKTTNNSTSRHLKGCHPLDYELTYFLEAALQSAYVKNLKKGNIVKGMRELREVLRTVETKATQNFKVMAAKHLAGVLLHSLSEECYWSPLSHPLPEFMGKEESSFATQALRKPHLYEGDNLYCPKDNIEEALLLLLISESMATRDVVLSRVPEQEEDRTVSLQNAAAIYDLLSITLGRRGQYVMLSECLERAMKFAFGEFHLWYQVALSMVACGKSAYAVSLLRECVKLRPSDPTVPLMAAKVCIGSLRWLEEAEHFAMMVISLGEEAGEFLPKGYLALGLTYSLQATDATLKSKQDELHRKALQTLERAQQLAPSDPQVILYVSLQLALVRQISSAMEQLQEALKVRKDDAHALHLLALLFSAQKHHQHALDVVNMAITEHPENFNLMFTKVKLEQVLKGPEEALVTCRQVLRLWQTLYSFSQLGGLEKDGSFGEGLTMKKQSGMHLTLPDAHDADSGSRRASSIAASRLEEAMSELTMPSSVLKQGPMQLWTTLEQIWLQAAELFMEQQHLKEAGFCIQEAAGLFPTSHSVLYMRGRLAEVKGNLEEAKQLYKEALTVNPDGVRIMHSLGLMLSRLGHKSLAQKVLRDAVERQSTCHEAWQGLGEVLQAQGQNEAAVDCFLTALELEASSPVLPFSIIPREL
# UniProt Q9NX07: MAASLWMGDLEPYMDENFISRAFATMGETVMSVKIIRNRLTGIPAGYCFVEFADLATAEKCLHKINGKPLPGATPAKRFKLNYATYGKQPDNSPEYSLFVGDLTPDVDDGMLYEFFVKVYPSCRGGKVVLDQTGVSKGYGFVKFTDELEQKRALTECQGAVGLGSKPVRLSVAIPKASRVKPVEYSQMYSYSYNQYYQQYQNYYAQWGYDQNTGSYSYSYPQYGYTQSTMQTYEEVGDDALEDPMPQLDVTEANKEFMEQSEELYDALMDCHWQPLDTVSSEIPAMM
# UniProt Q9UGJ1, whole entry, looked up: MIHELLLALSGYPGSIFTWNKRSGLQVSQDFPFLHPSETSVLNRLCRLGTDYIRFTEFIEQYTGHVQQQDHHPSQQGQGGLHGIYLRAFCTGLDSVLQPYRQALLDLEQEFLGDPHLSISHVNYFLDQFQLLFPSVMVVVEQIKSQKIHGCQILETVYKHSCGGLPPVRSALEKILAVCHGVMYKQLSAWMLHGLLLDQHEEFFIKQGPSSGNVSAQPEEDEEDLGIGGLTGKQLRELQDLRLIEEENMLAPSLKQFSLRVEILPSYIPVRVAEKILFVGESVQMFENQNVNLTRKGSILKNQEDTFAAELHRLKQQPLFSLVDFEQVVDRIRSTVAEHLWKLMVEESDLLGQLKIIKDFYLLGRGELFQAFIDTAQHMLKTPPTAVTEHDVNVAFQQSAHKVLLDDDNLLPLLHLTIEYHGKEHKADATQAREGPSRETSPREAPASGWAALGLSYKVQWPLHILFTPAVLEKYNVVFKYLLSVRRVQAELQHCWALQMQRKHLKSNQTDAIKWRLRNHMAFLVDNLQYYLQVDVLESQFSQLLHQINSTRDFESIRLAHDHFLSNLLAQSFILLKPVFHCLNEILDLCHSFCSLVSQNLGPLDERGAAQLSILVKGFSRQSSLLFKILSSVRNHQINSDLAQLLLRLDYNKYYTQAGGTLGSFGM
# UniProt Q14166: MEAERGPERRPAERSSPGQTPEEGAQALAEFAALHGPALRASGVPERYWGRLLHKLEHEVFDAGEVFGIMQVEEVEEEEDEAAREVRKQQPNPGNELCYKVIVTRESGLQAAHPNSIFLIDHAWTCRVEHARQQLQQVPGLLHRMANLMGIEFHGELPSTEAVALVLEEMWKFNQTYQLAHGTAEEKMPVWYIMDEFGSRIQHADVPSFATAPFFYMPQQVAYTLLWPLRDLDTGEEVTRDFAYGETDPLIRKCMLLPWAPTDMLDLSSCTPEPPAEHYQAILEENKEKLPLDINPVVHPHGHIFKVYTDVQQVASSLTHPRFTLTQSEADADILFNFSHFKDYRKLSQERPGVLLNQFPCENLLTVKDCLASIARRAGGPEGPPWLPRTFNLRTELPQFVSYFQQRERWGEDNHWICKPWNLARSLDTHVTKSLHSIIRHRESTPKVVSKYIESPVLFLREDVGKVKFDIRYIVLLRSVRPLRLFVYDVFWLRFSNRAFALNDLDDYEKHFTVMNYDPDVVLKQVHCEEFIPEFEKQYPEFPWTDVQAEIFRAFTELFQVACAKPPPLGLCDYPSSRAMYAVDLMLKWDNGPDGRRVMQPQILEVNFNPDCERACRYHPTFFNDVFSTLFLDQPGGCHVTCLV
# UniProt Q9BRA2: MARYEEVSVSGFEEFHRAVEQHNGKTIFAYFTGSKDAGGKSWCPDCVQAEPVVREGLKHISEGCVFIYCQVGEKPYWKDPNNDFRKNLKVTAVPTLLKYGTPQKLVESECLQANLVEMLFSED
# UniProt Q96QT4: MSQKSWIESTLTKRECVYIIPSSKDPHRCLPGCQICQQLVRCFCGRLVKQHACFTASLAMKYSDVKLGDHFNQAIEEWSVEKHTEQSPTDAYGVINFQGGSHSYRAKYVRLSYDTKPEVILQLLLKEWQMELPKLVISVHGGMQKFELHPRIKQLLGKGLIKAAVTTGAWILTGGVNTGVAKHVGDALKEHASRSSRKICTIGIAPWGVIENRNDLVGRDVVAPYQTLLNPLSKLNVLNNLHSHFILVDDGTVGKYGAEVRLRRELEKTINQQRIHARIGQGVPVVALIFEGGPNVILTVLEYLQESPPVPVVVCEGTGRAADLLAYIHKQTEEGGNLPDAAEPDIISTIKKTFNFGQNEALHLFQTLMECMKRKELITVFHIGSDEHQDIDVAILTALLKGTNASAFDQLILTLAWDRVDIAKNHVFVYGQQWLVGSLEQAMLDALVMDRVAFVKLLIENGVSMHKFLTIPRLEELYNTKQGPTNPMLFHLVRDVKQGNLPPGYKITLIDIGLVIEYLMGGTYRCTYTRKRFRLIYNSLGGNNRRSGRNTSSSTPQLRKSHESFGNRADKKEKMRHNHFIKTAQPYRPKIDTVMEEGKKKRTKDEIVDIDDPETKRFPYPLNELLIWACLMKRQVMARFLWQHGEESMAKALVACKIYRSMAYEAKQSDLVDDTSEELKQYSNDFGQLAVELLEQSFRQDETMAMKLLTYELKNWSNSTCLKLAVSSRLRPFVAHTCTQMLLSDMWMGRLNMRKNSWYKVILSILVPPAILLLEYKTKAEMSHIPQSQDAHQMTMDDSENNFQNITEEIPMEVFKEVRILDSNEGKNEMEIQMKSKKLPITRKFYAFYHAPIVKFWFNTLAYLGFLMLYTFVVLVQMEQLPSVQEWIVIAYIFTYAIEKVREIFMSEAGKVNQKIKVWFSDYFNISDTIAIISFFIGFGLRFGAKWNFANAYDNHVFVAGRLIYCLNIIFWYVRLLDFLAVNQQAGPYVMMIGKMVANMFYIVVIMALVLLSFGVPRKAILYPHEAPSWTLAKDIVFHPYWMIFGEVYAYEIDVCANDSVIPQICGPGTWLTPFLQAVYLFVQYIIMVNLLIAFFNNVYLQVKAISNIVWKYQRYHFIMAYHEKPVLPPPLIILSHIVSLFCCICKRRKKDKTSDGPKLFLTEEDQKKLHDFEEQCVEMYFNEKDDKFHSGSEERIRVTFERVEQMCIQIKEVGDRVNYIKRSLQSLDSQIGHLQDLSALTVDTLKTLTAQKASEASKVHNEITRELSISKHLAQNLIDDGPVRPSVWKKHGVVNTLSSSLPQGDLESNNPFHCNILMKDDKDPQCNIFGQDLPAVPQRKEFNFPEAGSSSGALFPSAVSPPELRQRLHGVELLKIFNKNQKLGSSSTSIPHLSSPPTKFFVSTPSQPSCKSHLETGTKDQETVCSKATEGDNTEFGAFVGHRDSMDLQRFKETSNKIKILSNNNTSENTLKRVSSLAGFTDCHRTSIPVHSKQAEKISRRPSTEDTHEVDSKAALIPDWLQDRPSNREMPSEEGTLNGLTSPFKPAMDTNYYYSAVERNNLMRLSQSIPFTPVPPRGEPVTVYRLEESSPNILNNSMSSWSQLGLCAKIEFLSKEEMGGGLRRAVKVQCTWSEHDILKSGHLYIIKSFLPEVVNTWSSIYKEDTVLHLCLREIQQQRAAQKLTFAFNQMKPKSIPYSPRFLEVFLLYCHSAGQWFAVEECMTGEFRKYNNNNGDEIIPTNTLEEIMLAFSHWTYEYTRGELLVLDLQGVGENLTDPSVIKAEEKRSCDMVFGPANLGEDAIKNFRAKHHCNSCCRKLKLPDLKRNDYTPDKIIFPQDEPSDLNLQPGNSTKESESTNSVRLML
# UniProt Q9UNY4: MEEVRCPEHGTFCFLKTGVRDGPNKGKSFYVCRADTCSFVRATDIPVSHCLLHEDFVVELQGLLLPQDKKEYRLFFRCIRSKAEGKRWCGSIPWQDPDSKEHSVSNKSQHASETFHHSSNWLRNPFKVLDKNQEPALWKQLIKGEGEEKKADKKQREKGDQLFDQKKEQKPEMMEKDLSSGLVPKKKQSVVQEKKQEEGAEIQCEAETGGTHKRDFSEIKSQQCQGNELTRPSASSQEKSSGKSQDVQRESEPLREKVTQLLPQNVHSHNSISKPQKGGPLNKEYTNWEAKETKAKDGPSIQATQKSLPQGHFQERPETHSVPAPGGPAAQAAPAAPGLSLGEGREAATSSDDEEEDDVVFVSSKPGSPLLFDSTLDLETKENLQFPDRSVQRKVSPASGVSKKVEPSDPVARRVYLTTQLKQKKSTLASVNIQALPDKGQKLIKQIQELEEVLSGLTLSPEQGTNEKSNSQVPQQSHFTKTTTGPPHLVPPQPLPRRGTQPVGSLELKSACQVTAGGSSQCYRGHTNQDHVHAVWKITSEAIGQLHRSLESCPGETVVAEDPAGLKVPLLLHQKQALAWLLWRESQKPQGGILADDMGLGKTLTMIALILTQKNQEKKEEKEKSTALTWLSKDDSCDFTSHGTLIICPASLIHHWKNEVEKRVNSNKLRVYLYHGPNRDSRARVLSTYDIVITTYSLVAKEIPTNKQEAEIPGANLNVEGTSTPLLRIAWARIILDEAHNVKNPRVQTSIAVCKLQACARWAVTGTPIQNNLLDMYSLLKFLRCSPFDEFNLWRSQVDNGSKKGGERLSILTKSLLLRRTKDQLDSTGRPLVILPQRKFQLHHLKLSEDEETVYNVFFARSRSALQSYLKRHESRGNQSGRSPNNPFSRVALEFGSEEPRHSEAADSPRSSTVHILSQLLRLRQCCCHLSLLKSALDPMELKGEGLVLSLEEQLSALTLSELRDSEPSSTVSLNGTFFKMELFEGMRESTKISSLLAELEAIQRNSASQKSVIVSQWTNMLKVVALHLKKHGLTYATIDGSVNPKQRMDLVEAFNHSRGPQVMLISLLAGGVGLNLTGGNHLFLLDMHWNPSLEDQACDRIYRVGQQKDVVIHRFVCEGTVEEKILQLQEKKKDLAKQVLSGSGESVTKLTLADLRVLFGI
# Some of the results follow.
# Compound: CC1Cc2ccccc2N1C(=O)C1CCCN(C1)C(=O)CCl (mixture of isomers) [TRIM25 ligand 11 (diastereomer mixture)]
# Test: probe-labelled cysteine peptide fold change vs DMSO (competition) (log2 fold change); higher = less target engagement (more negative = stronger competition)
# Conditions: 10 µM; THP-1; incubation time: 4 h
# 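Also: competitive chemoproteomic profiling in live THP-1 cells with an iodoacetamide desthiobiotin (IA-DTB) probe, comparing probe-labelled peptide intensities in compound-treated cells against DMSO-treated controls.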
row,Target,probe-labelled cysteine peptide fold change
1,TSR1_Q2NL82_126_ISLPEAMQLLQDRDTGTVHLNELGNTQNFMLLCPR (UniProt Q2NL82),-0.19
2,TRMT2A_Q8IZ69_486_VNAQDNELSNVEFHCGR (UniProt Q8IZ69),0.101
3,TUBGCP2_Q9BSJ2_350_TMDILASLATSVDKGECLGGSTLSLLHDR (UniProt Q9BSJ2),-0.105
4,TRRAP_Q9Y4A5_620_VANCQTVR (UniProt Q9Y4A5),0.0422
5,TRRAP_Q9Y4A5_2513_STPIGTSCQGAMLPSITNVINLADSHDR (UniProt Q9Y4A5),0.105
6,TUBGCP3_Q96CW5_325_SFGLVGQSFCAALHQELR (UniProt Q96CW5),0.124
7,TUBGCP2_Q9BSJ2_733_SASNIDDVLGHHTGFLDTCLK (UniProt Q9BSJ2),0.244
8,TTC7A_Q9ULT0_337_KPHLYEGDNLYCPK (UniProt Q9ULT0),0.11
9,TRMT1_Q9NXH9_621_GDQCCYSHSPPTPR (UniProt Q9NXH9),-0.202
10,TSR3_Q9UJK0_208_YAACGSPEEVLQAEQEFLANAK (UniProt Q9UJK0),0.114
11,TWSG1_Q9GZX9_208_WFHNACCECIGPECIDYGSK (UniProt Q9GZX9),0.135
12,TRNAU1AP_Q9NX07_48_LTGIPAGYCFVEFADLATAEK (UniProt Q9NX07),0.308
13,TWISTNB_Q3B726_47_YSCLVAGPHQR (UniProt Q3B726),0.137
14,TUBGCP4_Q9UGJ1_151_IHGCQILETVYK (UniProt Q9UGJ1),-0.0417
15,TSTA3_Q13630_163_AYFQQYGCTFTAVIPTNVFGPHDNFNIEDGHVLPGLIHK (UniProt Q13630),0.225
16,TSPAN14_Q8NG11_200_VVNTQCGYDVR (UniProt Q8NG11),-0.13
17,TUFM_P49411_222_ELLTEFGYKGEETPVIVGSALCALEGRDPELGLK (UniProt P49411),-0.0428
18,TTLL12_Q14166_361_PGVLLNQFPCENLLTVK (UniProt Q14166),-0.15
19,TTC7A_Q9ULT0_121_LSPQYMCEAMLILGK (UniProt Q9ULT0),0.28

row,Target,probe-labelled cysteine peptide fold change
1,TRMT2A_Q8IZ69_365_ASGVTCLYFVEEGQR (UniProt Q8IZ69),-0.161
2,TXNDC17_Q9BRA2_46_SWCPDCVQAEPVVR (UniProt Q9BRA2),-0.332
3,TRPM2_O94759_1250_HLLYPNCPVTR (UniProt O94759),0.0329
4,TRRAP_Q9Y4A5_3535_IYPYLVMNDACLTESR (UniProt Q9Y4A5),-0.171
5,TSC2_P49815_1026_NLHLELTETCLDMMAR (UniProt P49815),0.155
6,TRPM7_Q96QT4_1411_FFVSTPSQPSCK (UniProt Q96QT4),0.0488
7,TSFM_P43897_240_YGALVICETSEQK (UniProt P43897),0.174
8,TSPYL5_Q86VY4_153_KAPETCSTAGR (UniProt Q86VY4),-0.142
9,TUBGCP6_Q96RT7_1601_YLPEVFAPNAPDVLSCLELR (UniProt Q96RT7),-0.0378
10,TSC2_P49815_791_EMVYCLEQGLIHR (UniProt P49815),0.209
11,TUBB6_Q9BUF5_127+129_KECEHCDCLQGFQLTHSLGGGTGSGMGTLLISK (UniProt Q9BUF5),-0.128
12,TUFM_P49411_290_GDECELLGHSK (UniProt P49411),0.0556
13,TRMT1_Q9NXH9_482_VSLSHACK (UniProt Q9NXH9),0.0229
14,TSFM_P43897_149_FQLLVQQVALGTMMHCQTLK (UniProt P43897),-0.117
15,TTC1_Q99614_149_ALEMCPSCFQK (UniProt Q99614),0.0538
16,TTF2_Q9UNY4_204_KQEEGAEIQCEAETGGTHK (UniProt Q9UNY4),-0.167
17,TRNAU1AP_Q9NX07_157_ALTECQGAVGLGSKPVR (UniProt Q9NX07),-0.0678
18,TTC26_A0AVF1_227_ACNHFR,0.072
19,TSR1_Q2NL82_753_CSFDGK (UniProt Q2NL82),-0.16

# Same assay, conditions: 50 µM; THP-1; incubation time: 4 h
row,Target,probe-labelled cysteine peptide fold change
1,TSR1_Q2NL82_126_ISLPEAMQLLQDRDTGTVHLNELGNTQNFMLLCPR (UniProt Q2NL82),-0.448
2,TRMT2A_Q8IZ69_486_VNAQDNELSNVEFHCGR (UniProt Q8IZ69),-0.11
3,TUBGCP2_Q9BSJ2_350_TMDILASLATSVDKGECLGGSTLSLLHDR (UniProt Q9BSJ2),-0.132
4,TRRAP_Q9Y4A5_620_VANCQTVR (UniProt Q9Y4A5),0.0573
5,TRRAP_Q9Y4A5_2513_STPIGTSCQGAMLPSITNVINLADSHDR (UniProt Q9Y4A5),-0.0541
6,TUBGCP3_Q96CW5_325_SFGLVGQSFCAALHQELR (UniProt Q96CW5),-0.187
7,TUBGCP2_Q9BSJ2_733_SASNIDDVLGHHTGFLDTCLK (UniProt Q9BSJ2),0.0122
8,TTC7A_Q9ULT0_337_KPHLYEGDNLYCPK (UniProt Q9ULT0),0.0734
9,TRMT1_Q9NXH9_621_GDQCCYSHSPPTPR (UniProt Q9NXH9),-0.373
10,TSR3_Q9UJK0_208_YAACGSPEEVLQAEQEFLANAK (UniProt Q9UJK0),0.13
11,TWSG1_Q9GZX9_208_WFHNACCECIGPECIDYGSK (UniProt Q9GZX9),0.0758
12,TRNAU1AP_Q9NX07_48_LTGIPAGYCFVEFADLATAEK (UniProt Q9NX07),0.204
13,TWISTNB_Q3B726_47_YSCLVAGPHQR (UniProt Q3B726),0.113
14,TUBGCP4_Q9UGJ1_151_IHGCQILETVYK (UniProt Q9UGJ1),0.202
15,TSTA3_Q13630_163_AYFQQYGCTFTAVIPTNVFGPHDNFNIEDGHVLPGLIHK (UniProt Q13630),0.239
16,TSPAN14_Q8NG11_200_VVNTQCGYDVR (UniProt Q8NG11),-0.0684
17,TUFM_P49411_222_ELLTEFGYKGEETPVIVGSALCALEGRDPELGLK (UniProt P49411),0.0764
18,TTLL12_Q14166_361_PGVLLNQFPCENLLTVK (UniProt Q14166),-0.1
19,TTC7A_Q9ULT0_121_LSPQYMCEAMLILGK (UniProt Q9ULT0),0.274

row,Target,probe-labelled cysteine peptide fold change
1,TRMT2A_Q8IZ69_365_ASGVTCLYFVEEGQR (UniProt Q8IZ69),0.157
2,TXNDC17_Q9BRA2_46_SWCPDCVQAEPVVR (UniProt Q9BRA2),-0.479
3,TRPM2_O94759_1250_HLLYPNCPVTR (UniProt O94759),0.064
4,TRRAP_Q9Y4A5_3535_IYPYLVMNDACLTESR (UniProt Q9Y4A5),0.0166
5,TSC2_P49815_1026_NLHLELTETCLDMMAR (UniProt P49815),0.166
6,TRPM7_Q96QT4_1411_FFVSTPSQPSCK (UniProt Q96QT4),-0.294
7,TSFM_P43897_240_YGALVICETSEQK (UniProt P43897),0.363
8,TSPYL5_Q86VY4_153_KAPETCSTAGR (UniProt Q86VY4),-0.0577
9,TUBGCP6_Q96RT7_1601_YLPEVFAPNAPDVLSCLELR (UniProt Q96RT7),0.0612
10,TSC2_P49815_791_EMVYCLEQGLIHR (UniProt P49815),0.151
11,TUBB6_Q9BUF5_127+129_KECEHCDCLQGFQLTHSLGGGTGSGMGTLLISK (UniProt Q9BUF5),-0.141
12,TUFM_P49411_290_GDECELLGHSK (UniProt P49411),-0.156
13,TRMT1_Q9NXH9_482_VSLSHACK (UniProt Q9NXH9),-0.097
14,TSFM_P43897_149_FQLLVQQVALGTMMHCQTLK (UniProt P43897),-0.0693
15,TTC1_Q99614_149_ALEMCPSCFQK (UniProt Q99614),0.202
16,TTF2_Q9UNY4_204_KQEEGAEIQCEAETGGTHK (UniProt Q9UNY4),-0.353
17,TRNAU1AP_Q9NX07_157_ALTECQGAVGLGSKPVR (UniProt Q9NX07),-0.0966
18,TTC26_A0AVF1_227_ACNHFR,0.0596
19,TSR1_Q2NL82_753_CSFDGK (UniProt Q2NL82),-0.178
